By AC50 is commonly meant the midpoint of the concentration-response curve, whichever way the signal moves. A high value points to activity only at high concentration.

From PubChem BioAssay AID2685 (National Center for Advancing Translational Sciences (NCATS), 2010) come the findings set out here.

Some of the results follow. Further columns of the screen follow, without active or inactive calls. The list favours compounds with an active or inconclusive main result. The note in brackets gives the kind of curve behind each potency; many fits are weak.

A short description of the test: qHTS Assay for Lipid Storage Modulators in Drosophila S3 Cells.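 As to cell number change: cells counted by Cell Tracker Red CMTPX staining in the red channel.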 To be noted: BODIPY lipid droplet fluorescence, 18-24 h; for cell number change: measured here: cell count max response, cells fed with added oleic acid. The essentials: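 Laser-scanning cytometry quantifies lipid droplet accumulation (500–530 nm total intensity; droplet/cell object ratio) in oleic acid-fed (400 uM added) Drosophila S3 cells treated with a concentration series. 20 uM Triacsin C defined 100% inhibition.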

Setting [1] is: measured here: lipid fluorescence (Fed channel) AC50, cells fed with added oleic acid.
Where [2] appears, read: measured here: cell number channel AC50, cells fed with added oleic acid.

Regarding `CCOc1ccc2c(c1)C(C)=CC(C)(C)N2S(=O)(=O)c1ccc(F)cc1`, the cell number change is -22.3%. Under setting [1], the AC50 was 29.1 µM [falling, single point].

For the molecule `CCC(CC)C(=O)NC12CC3CC(CC(C3)C1)C2`, the cell number change is -7.91%. In addition, under setting [1], the AC50 was 0.00461 µM [falling, full curve, poor fit].

With `COc1cccc(C(=O)Nc2c3c(nc4c2CCC4)CCCC3)c1`, the cell number change was determined as 33.5%. Also, under setting [2], the AC50 was 29.1 µM [rising, single point]. Moreover, the half-maximal activity concentration (AC50) under setting [1] is 18.4 µM [rising, single point].

Turning to `CCCc1nc(C)cc(N2CCN(c3ccccc3)CC2)n1`, the cell number change was -5.63%.

`O=C(CCCN1C(=O)/C(=C/c2cccs2)SC1=S)Nc1cccnc1`: the cell number change is 13.4%. For the same molecule, the AC50 under setting [1] was 2.91 µM [rising, partial curve, poor fit].

`O=C(Cc1ccc(-n2c(=O)[nH]c3ccccc3c2=O)cc1)N1CCN(c2cccc(Cl)c2)CC1`: the cell number change came out at 15.6%.

As to `CCOc1ccccc1Oc1cn[nH]c1-c1ccc(OCC(=O)NN)cc1O`, the cell number change stood at 1.62%. Under setting [1], the AC50 was 1.84 µM [rising, partial curve].

Regarding `O=C(CN1CCC(N2CCCCC2)CC1)N1CCCc2ccccc21`, the concentration at half-maximal activity (AC50) under setting [1] is 0.731 µM [falling, partial curve, poor fit].

With `COc1cc2cncc(Cc3ccc(Cl)cc3)c2cc1OC`, the cell number change was -43.6%. Under setting [2], the AC50 is 29.1 µM [falling, partial curve, poor fit]. The concentration at half-maximal activity (AC50) under setting [1] was 0.13 µM [falling, full curve, poor fit].

With `CCCCc1c(O)nc(SCC(=O)O)[nH]c1=O`, the cell number change is 18.1%. The AC50 under setting [1] is 25.9 µM [rising, single point].

In the case of `Cc1nnc(NC(=O)c2ccc(S(=O)(=O)N(C)c3ccccc3)cc2)s1`, the cell number change is 1.13%. For the same molecule, the AC50 under setting [1] was 18.4 µM [rising, single point].

Regarding `CCOC(=O)c1cc(NC(=O)COc2ccc([N+](=O)[O-])cc2)cc(C(=O)OCC)c1`, the cell number change was determined as 18.2%. Besides, the AC50 under setting [2] was 2.06 µM [falling, partial curve]. The AC50 under setting [1] is 2.06 µM [rising, partial curve].

In the case of `CCN(C=NC1=NN(c2cccc(C(F)(F)F)c2)CC1)CC`, the cell number change is 12.5%. Further, the AC50 under setting [1] was 1.16 µM [falling, partial curve].

For `COc1cc(C2C(C(=O)OC(C)C)=C(C)Nc3[nH]c(=O)[nH]c(=O)c32)ccc1O` (stereo unspecified), the cell number change was found to be 0.504%.

Take `CCc1noc(C)c1C(=O)OCC(=O)c1ccc(OC)c(OC)c1`: the cell number change is -0.413%. Also, under setting [1], the AC50 was 6.51 µM [falling, full curve].

For `CCC(=O)N(Cc1cc2cc(OC)ccc2[nH]c1=O)c1ccccc1C`, the cell number change is 66%. Also, under setting [2], the AC50 is 8.2 µM [rising, partial curve]. Further, under setting [1], the AC50 is 2.59 µM [rising, full curve, poor fit].

In the case of `Fc1ccc2[nH]c3c(Cl)ncnc3c2c1`, the cell number change is 15.5%.

Take `Cc1c(-c2ccccc2)c(=O)oc2ccc(O)cc12`: the cell number change was 3.58%. Besides, the AC50 under setting [1] was 0.517 µM [falling, partial curve, poor fit].

`CCS(=O)(=O)N1CCC2(CC1)OCCN2S(=O)(=O)c1ccc(OC)cc1`: the cell number change amounted to 86.9%. Further, the half-maximal activity concentration (AC50) under setting [2] was 29.1 µM [rising, single point].

Consider `Cc1ccc(SCc2[nH]nc3c2C(c2ccco2)C(C#N)=C(N)O3)cc1` (stereo unspecified), for which the cell number change is -11.8%. For the same molecule, the AC50 under setting [1] was 8.2 µM [falling, single point].

For the molecule `COC(=O)c1nn(-c2ccccc2)c(-c2ccccc2)c1C(=O)c1ccccc1`, the cell number change turned out to be 19.3%.

As for `COc1ccc2oc(C(F)(F)C(F)(F)F)cc(=O)c2c1`, the cell number change was -11.4%. In addition, the AC50 under setting [1] is 1.46 µM [falling, full curve].

With `Cc1ccc(C(=O)Nc2nc(-c3ccccn3)cs2)s1`, the AC50 under setting [1] was 0.731 µM [falling, full curve].

As to `COC(=O)C(CC(C)C)NC(=O)/C=C/c1ccccc1Cl` (stereo unspecified), the cell number change was found to be 12.8%. Under setting [1], the AC50 was 29.1 µM [rising, single point].

For `Cc1cccc(Cn2ncc(Cl)c(Cl)c2=O)c1`, the cell number change was -44%.

In the case of `Cc1ccc(NC(=O)c2ccco2)c(NC(=O)COc2ccccc2)c1`, the cell number change was found to be 2.78%. Further, under setting [1], the AC50 is 10.3 µM [rising, partial curve].

As to `Cc1cc(C)c(-c2csc(NC(=O)/C=C/c3cccs3)n2)c(C)c1`, under setting [1], the AC50 was 14.6 µM [falling, partial curve].

`CC(C)(C)C1CC=C2C(C#N)=C(N)C(C#N)(C#N)C(c3cccs3)C2C1` (stereo unspecified): the cell number change is -11.7%. Besides, under setting [1], the AC50 is 23.1 µM [rising, single point].

On to `Cn1c(Cn2nnc3ccccc32)nnc1SCC(=O)N1c2ccccc2CCc2ccccc21`, for which the cell number change was -14.8%. Further, under setting [1], the half-maximal activity concentration (AC50) is 6.51 µM [rising, single point].

Regarding `N#Cc1cccc(NC(=O)CCn2ccnc2)c1`, the cell number change came out at 61.9%. Also, the AC50 under setting [2] was 23.1 µM [rising, single point]. For the same molecule, the AC50 under setting [1] was 7.31 µM [rising, partial curve, poor fit].

Consider `O=C1CN(S(=O)(=O)c2cccc(C(=O)O)c2)c2ccccc2N1`, for which the cell number change worked out at 5.88%. Moreover, the AC50 under setting [2] was 6.51 µM [rising, single point]. The AC50 under setting [1] was 6.51 µM [falling, single point].

`O=c1[nH]c2ccc(S(=O)(=O)Nc3ccc(-c4nnc5n4CCCCC5)cc3)cc2o1`: the cell number change amounted to 5.62%.

Consider `C=CCNC(=O)CN1CCC(O)(c2ccc(F)cc2)CC1`, for which the cell number change stood at 7.41%. Besides, the AC50 under setting [1] is 2.91 µM [rising, full curve].

On to `CN(CC(=O)Nc1cccc2c1CCCC2)S(=O)(=O)c1ccc(Br)cc1`, for which the cell number change was 0.697%. Moreover, the AC50 under setting [1] was 32.6 µM [rising, single point].

Turning to `O=C(c1ccco1)N1CCN(/C(=N/S(=O)(=O)c2cccs2)c2ccccc2Cl)CC1`, the AC50 under setting [1] was 6.51 µM [falling, single point].

For the molecule `Oc1ccc2ccccc2c1N=Nc1nccs1`, the cell number change was -62.5%. Under setting [2], the AC50 was 18.4 µM [falling, single point]. Further, under setting [1], the AC50 was 29.1 µM [falling, single point].

For the molecule `Cc1ccc2ncnc(Nc3cccc([N+](=O)[O-])c3)c2c1`, the AC50 under setting [1] was 29.1 µM [falling, single point].

Turning to `O=C(NCc1cccs1)c1ccc(N2CCCCC2)nc1`, the cell number change was -30.1%. In addition, the AC50 under setting [2] was 6.51 µM [falling, full curve, poor fit]. Moreover, the AC50 under setting [1] was 13 µM [falling, partial curve, poor fit].

Turning to `CCOC(=O)c1cnn(-c2ccccc2)c1-n1cccc1C(=O)C(=O)Nc1ccccc1`, the cell number change is -7.35%. The concentration at half-maximal activity (AC50) under setting [1] is 0.13 µM [falling, full curve].

With `COc1cccc(C=Nc2ccccc2C#N)c1O`, the AC50 under setting [1] was 29.1 µM [rising, single point].

`Cc1ccc(NC(=O)CCC(=O)NNS(=O)(=O)c2ccccc2)c(C)c1`: the cell number change is -15%. Further, the AC50 under setting [1] was 0.517 µM [falling, full curve, poor fit].

Consider `Cc1ccc(S(=O)(=O)N2CCC(=O)N(C(COCc3cccc(C(F)(F)F)c3)Cc3ccccc3)CC2)cc1` (stereo unspecified), for which the cell number change is 0.227%.

Turning to `COc1ccc(N2CCN(c3nc(Cl)nc(Nc4ccc(F)cc4)n3)CC2)cc1`, the half-maximal activity concentration (AC50) under setting [1] is 2.91 µM [rising, partial curve].

`CCc1cccc(C)c1NC(=O)COC(=O)c1cc([N+](=O)[O-])ccc1N1CCOCC1`: the AC50 is 2.06 µM [rising, partial curve, poor fit] under setting [2] and 1.64 µM [rising, partial curve] under setting [1].

On to `COc1ccc(NC(=O)Cn2nnc(C(=O)NCCc3ccc(OC)c(OC)c3)c2N)c(OC)c1`, for which the cell number change was 27%. The AC50 under setting [1] was 32.6 µM [rising, single point].

Regarding `CCn1nc(NS(=O)(=O)c2ccccc2)c2cc3ccc(C)cc3nc21`, the cell number change was -3.54%. The AC50 under setting [1] was 29.1 µM [rising, single point].

In the case of `C/C=C/Cn1c(SC)nc2c1c(=O)[nH]c(=O)n2C`, the cell number change came to 27.9%. Besides, under setting [2], the AC50 is 4.11 µM [rising, full curve, poor fit].

With `N#CC(c1ccccc1)N(CCCCl)C(=O)c1ccc(Br)cc1` (stereo unspecified), the cell number change was -11.9%. Under setting [1], the AC50 was 7.31 µM [falling, partial curve].

Take `CCOC(=O)CCC(=O)N1CCNC(=O)C1`: the cell number change was -10.5%. Besides, the AC50 under setting [1] is 20.6 µM [falling, partial curve].

Turning to `O=C(CSc1nnc(CNC(=O)c2ccccc2)o1)NCc1ccccc1`, the cell number change was -30.2%. Besides, the AC50 under setting [2] was 9.2 µM [falling, partial curve]. Also, the AC50 under setting [1] was 0.651 µM [falling, full curve].

`OCC[C@@H]1C[C@H](O)[C@@H](O)[C@]2(CCc3ccccc3CO2)O1`: the cell number change is 2.69%. For the same molecule, the AC50 under setting [1] was 29.1 µM [rising, single point].

Turning to `COc1ccc(Cn2nnnc2C(c2cc3ccc(OC)cc3[nH]c2=O)N2CCCCCC2)cc1` (stereo unspecified), the cell number change is -0.136%. Besides, under setting [1], the AC50 was 6.51 µM [rising, single point].

With `COC(=O)Nc1csc2c1NC(=O)CCCC2`, the cell number change was determined as 15.5%.

On to `Cn1nccc1C(=O)NC1CCCc2c1cnn2-c1cc(F)cc(F)c1` (stereo unspecified), for which the cell number change is 5.42%.

Consider `CCOC(=O)c1c(-c2ccccc2)csc1NC(=S)NC(=O)c1ccccc1`, for which the cell number change was found to be 65.1%. Moreover, under setting [2], the AC50 was 1.46 µM [rising, full curve].

Regarding `COc1ccc(C(=O)NCCc2c[nH]c3ccccc23)cc1[N+](=O)[O-]`, the cell number change is -48.1%. For the same molecule, the AC50 under setting [2] is 18.4 µM [falling, partial curve].

Regarding `CC(=O)Nc1c(C(=O)c2ccccc2)oc2ccccc12`, the cell number change is -25.3%.

For the molecule `O=C(O)CCCC(=O)Nc1cccc2cccnc12`, the cell number change is -16.7%. The AC50 under setting [2] was 0.651 µM [falling, full curve, poor fit].

On to `COc1cccc(NC(=O)Cn2c(CCC(=O)O)ccc2-c2cccs2)c1`, for which the cell number change was -7.2%. Under setting [2], the AC50 was 2.91 µM [falling, single point].

In the case of `CS(=O)(=O)N1CCN=C1SCc1ccc(Br)cc1`, the cell number change is -10.4%.

Turning to `Cc1nnsc1-c1onc(C)c1C(=O)O/N=C/c1ccc(Cl)cc1`, the cell number change worked out at 5.3%. Besides, under setting [1], the AC50 was 5.17 µM [falling, single point].

With `O=C(CN1C(=O)c2ccccc2C1=O)NN1C(=O)c2ccccc2C1=O`, the cell number change was 16.1%. In addition, under setting [1], the AC50 is 9.2 µM [rising, single point].

For the molecule `CCCSc1nc(N2CCCC2)c2c(c1C#N)CC(C)(C)OC2`, the cell number change was 14.3%. The AC50 under setting [1] is 20.6 µM [rising, partial curve].
